Laboratory results taken from paper PMC7191908, “Bacterial ι-carbonic anhydrase: a new active class of carbonic anhydrase identified in the genome of the Gram-negative bacterium Burkholderia territorii” (Journal of Enzyme Inhibition and Medicinal Chemistry, 2020).

Target: BteCAι
Details: CO2 substrate 1.7-17 mM; Zn(II) enzyme; 20 mM Tris (pH 7.5 in Methods, 8.3 in Table 1), 20 mM NaClO4; 25 C; 15 min preincubation at room temperature; Cheng-Prusoff

SMILES: CC(=O)Nc1nnc(S(N)(=O)=O)s1 [acetazolamide]
- Ki: 64.9 nM
